Results: patent US20030092692A1, “Cytoprotective steroids (II)” (priority 2000, published 2003)
Some results were stated once for a whole list of compounds, not compound by compound. At least one compound was matched to its structure with a doubt left.

System: Rat cortical neurons
Test: Glutamate induced neuronal cell death of primary cortical cultures (LDH release)
Type: cell-based, Wistar rat
Conditions: 10 nM; glutamate 200 μM
Experimental: Rat cortical neurons were cultured by modification of the methods of Dichter (1973) Brain Res 149, p279-293 and Durkin et al (1996) J. Neurochem 66, p951-962. A female Wistar rat (Janvier, Le Genest-St-Isle, France: ref RJ WAF151) of 17 days gestation was killed by cervical disclocation, the foetuses removed on embryonoic day 17 and brains removed and placed in ice-cold calcium/magnesium free Hanks balanced salt solution (HBSS: Gibco Life Technologies, Cergy-Pontoise, France: ref 14170-088 batch 302790). Each cortex was dissected and meninges were carefully removed.
The cortical neurons were dissociated by trypsinization for 5 minutes at 37° C. (trypsin: 0.5 mg/ml: Difco, LPCR, Strasbourg: ref 0152-14 batch 128856JC) and the reaction stopped by addition of HBSS containing calcium and magnesium (HBSS+ Gibco ref 24020-091; batch 3010598) with 10% of fetal bovine serum FBS; Gibco; ref 1027-098; batch 40Q1681K and 1 mg/ml DNase I (Boehringer Mannheim, Meylan, France; ref 1284938; batch 14880300). […]
The cells were resuspended in Dulbecco's Modified Eagle Medium (DMEM; Gibco; ref. 41965-039; batch 3032129), containing 20% FBS. Viable cells were quantified and plated at 35,000/well in 96 well plates (Nunclon, Gibco) previously coated with poly-L-lysine (0.01 mg/ml, France; ref. P5899; batch 28H8504). […]

## C[C@]12CC[C@H](O)CC1=C[C@@H](O)[C@@H]1[C@@H]2CC[C@]2(C)C(=O)CC[C@@H]12 [7α-hydroxy-DHEA]
  less cell death in presence of glutamate: up to 20%
